At least one structure is not confirmed: it was looked up by name or label, or the drawing left a doubt.
Experiments:
Type in all cases: cell-based, S. cerevisiae
GEV-GFP = GEV-GFP nuclear localization after β-estradiol pulse, single-cell microscopy (DBY11415); settings: higher doses, 100 nM to 10 μM β-estradiol
Protocol: Fluorescence was measured with an epifluorescence Nikon Eclipse-TI inverted microscope using a Nikon 40×/0.95NA DIC Plan Apo objective. The microscope is equipped with a PerfectFocus system (Nikon) for maintaining the correct focal plane, a Clara CCD Camera (Andor DR328G) for recording fluorescence emission, and a TI-S-ER motorized stage with encoders to ensure near perfect return to marked stage positions (Nikon MEC56100). GEV-GFP emission was visualized at 525 nm (50-nm bandwidth) upon excitation at 470 nm (40-nm bandwidth) (Chroma #49002_Nikon ETGFP filter cube). […]
Overnight cultures of DBY11415 (MATa/MATα HTB2-mCherry-caURA3/HTB2 his3/HIS3, (gal1+PGAL10):: loxP/GAL1, gal4::LEU2/GAL4, HAP1+/hap1−, leu2Δ0::PACT1-GEV-GFP-KanMX/LEU2) were grown in LFM overnight to saturation. […] The Klett was monitored, and at Klett 40 cells were loaded into 96-well glass-bottomed optical plates for microscopy (Nunc #265300). […]
Image processing was performed by preprocessing the images in ImageJ and then using a custom written Matlab script to extract the intensities in the nuclei relative to the cytoplasm. Briefly, the image processing was done as follows: Fluorescence images were background subtracted using the rolling ball background subtraction command in ImageJ using a ball radius of 50 pixels. […]
These preprocessed images were then analyzed using a custom-written Matlab script. […]

GEV = GEV activation of PGAL1-GFP reporter, flow cytometry (DBY12039)
PGAL1-TPS2 = assay: Repair of heat sensitivity by GEV-mediated induction of TPS2 (DBY12086); settings: 10 nM β-estradiol
PGAL1-MET4 = assay: GEV induction of Pgal1-MET4 transcripts, microarray (DBY12099)

## C[C@]12CC[C@@H]3c4ccc(O)cc4CC[C@H]3[C@@H]1CC[C@@H]2O [β-estradiol]
GEV-GFP
  time at which nuclear localization signal emerges from the background after hormone addition: 6 to 8 min
GEV; 10 nM β-estradiol, 12 hours
  average GFP intensity: increased but well below what is achieved at higher inducer concentrations
GEV; 100 nM β-estradiol, 12 hours
  average GFP intensity induction: near maximum
GEV; PGAL1-GFP reporter, percentage of induced cells over time, units given in the value
  β-estradiol concentration at which GEV is saturated: 100 nM and 1000 nM
GEV; below 1 nM β-estradiol, twelve hours of incubation
  average GFP intensity: near the background
PGAL1-TPS2
  growth at heat-sensitive condition with TPS2 downstream of PGAL1: restored to wild type levels
PGAL1-MET4; after β-estradiol addition
  time at which PGAL1-driven transcript is detectable: ≤ 2.5 min
PGAL1-MET4; by 5 minutes
  amount of induction of PGAL1-driven transcript: near-maximal
